# Data: article PMC5442318, “Hundreds of dual-stage antimalarial molecules discovered by a functional gametocyte screen” (Nature Communications, 2017)
# Tested on: HepG2 cells
# Assay: HepG2 cytotoxicity assay
# Format: cell-based
# Details: HepG2 TOX50 / Pf FGAA IC50
# Method: After incubation, plates and CellTiter-Glo Reagent (G7571, Promega) were equilibrated at room temperature for 30 min before proceeding to develop the luminescent signal. Using a Multidrop combi dispenser, 25 μl per well of the signal developer were added to the plates and after 10 min at room temperature for stabilization, plates were read on the ViewLux system (Perkin Elmer).
row,SMILES,Selectivity ratio
1,O=C(O)CCSSc1cccc[n+]1[O-] [TCMDC-141973],487.84
2,CN1CCc2cc(NS(=O)(=O)c3ccc(-c4ccc(Cl)cc4)cc3)c(OCCCN3CCCCC3)cc2CC1.Cl [TCMDC-141754],2.30
3,ON=C1CCc2cc(-c3cc(-c4ccc(OC5CCNCC5)cc4)oc3-c3ccncc3)ccc21 [TCMDC-141381],25.16
4,CCN(CC)CCN(Cc1ccc(-c2ccc(C(F)(F)F)cc2)cc1)C(=O)Cn1cc(Cc2cnn(C)c2)c(=O)nc1/C=C/c1cccc(F)c1F [TCMDC-140964],11.15
5,Cl.OC(CNCCCCCCNCC(O)c1ccc(Cl)c(Cl)c1)c1ccc(Cl)c(Cl)c1 (stereo not drawn) [TCMDC-141987],4.74
6,O=C(Nc1ccc(Cl)cc1)c1cc(Cl)cc2nc(C(F)(F)F)[nH]c12 [TCMDC-141586],1.66

# Same assay, conditions: HepG2 TOX50 versus Pf FGAA IC50
row,SMILES,Selectivity ratio
1,CC(C)N1CCN(C(CN2CCN(CCCOc3ccccc3-c3ccccc3)CC2)c2ccc(F)cc2)CC1.Cl (stereo not drawn) [TCMDC-135499],3.06
2,CCCN(CC1CC1)c1ncc(-c2cccc(CNCCC3CCCN3C)c2)cn1 (stereo not drawn) [TCMDC-133142],1.42
3,COc1ccc(CNC2Cc3ccccc3C2)cc1-c1ccc(S(=O)(=O)NCCN2CCCC2)c(F)c1.O=C(O)C(F)(F)F [TCMDC-132266],3.10
4,OCCN1CCN(c2ccc(Nc3ccnc4cc5ccccc5cc34)cc2)CC1 [TCMDC-123915],1.63
5,C[C@H](Cc1ccc(C[C@@H](C)NC[C@H](O)c2cccc(Cl)c2)cc1)NC[C@H](O)COc1ccccc1.Cl [TCMDC-131549],3.72
6,ON=C(c1nc2ccccc2[nH]1)c1nc2ccccc2[nH]1 [TCMDC-125758],14.86
7,CCOc1ccc2nc3cc(NC(=O)c4ccco4)ccc3c(N)c2c1 [TCMDC-125004],5.53
8,CCCC(=O)NC(c1ccc(C(C)C)cc1)c1ccc2cccnc2c1O (stereo not drawn) [TCMDC-123884],>65
9,CCN1CCN(c2ccc(Nc3c4ccccc4nc4ccccc34)cc2)CC1 [TCMDC-124255],4.56
10,CCn1c(-c2nonc2N)nc2c(-c3cc4ccccc4s3)ncc(C(=O)N3CCC(N)C3)c21.O=C(O)C(F)(F)F (stereo not drawn) [TCMDC-135281],2.23
11,CN1CCCC(CN2CCN(Cc3cccc(-c4ccc(-c5nc6cc(C(F)(F)F)ccc6[nH]5)cc4)c3)CC2)C1.O=C(O)C(F)(F)F (stereo not drawn) [TCMDC-133882],3.14
12,CCc1c(CCNCCCCCCNCCc2ccc([N+](=O)[O-])cc2)ccc(OC)c1OC.Cl [TCMDC-132066],3.13
13,CC(C)(C)c1ccc(CN2CCC(CNC(=O)c3cc(-c4ccccc4Cl)cs3)C2)cc1.O=C(O)C(F)(F)F (stereo not drawn) [TCMDC-134445],6.08
14,CCN(CC)/C(=N/C(=N)NCc1ccc(Cl)cc1Cl)NCCCCCCN/C(=N\C(=N)NCc1ccc(Cl)cc1Cl)N(CC)CC [TCMDC-131819],7.73
15,Cc1cccc(Nc2nc(N[C@@H]3CCCNC3)nc3cc[nH]c(=O)c23)c1.O=C(O)C(F)(F)F [TCMDC-134835],1.76
16,COc1ccc(CNC2Cc3ccccc3C2)cc1-c1ccc(S(=O)(=O)NCCN2CCCC2)cc1.O=C(O)C(F)(F)F [TCMDC-132248],2.95
17,CC(C)c1ccc(CN2CCC(CNC(=O)c3cc(-c4cccc(Cl)c4)cs3)C2)cc1.O=C(O)C(F)(F)F (stereo not drawn) [TCMDC-134438],10.89

row,SMILES,Selectivity ratio
1,Cc1ccc(Cl)c2sc(N3CCN(C(=O)c4ccc([N+](=O)[O-])o4)CC3)nc12 [TCMDC-124311],17.93
2,Cn1c(Sc2ncnc3sccc23)nc2ccccc21 [TCMDC-124514],>80
3,Cc1ccnc(NC(c2ccc(Cl)c([N+](=O)[O-])c2)c2ccc3cccnc3c2O)c1 (stereo not drawn) [TCMDC-123691],15.84
4,Fc1ccc(NC(S)=NN=Cc2ccccn2)cc1 [TCMDC-125521],">3,333.33"
5,Fc1ccc2nc(Nc3nc(-c4ccccn4)cs3)sc2c1 [TCMDC-125540],1073.05
6,Cc1ccc(C)c2sc(N3CCN(C(=O)c4ccc([N+](=O)[O-])o4)CC3)nc12 [TCMDC-124315],33.48
7,CC(Nc1cc(-c2ccccn2)nc(-c2ccccn2)n1)c1ccccc1 (stereo not drawn) [TCMDC-125420],29.80
8,CCc1c(CCNCCCCCNCCc2ccc(OC)c(OC)c2CC)ccc(OC)c1OC.Cl [TCMDC-132064],2.28
9,SC(=Nc1ccc(Cl)c(Cl)c1)NN=Cc1ccccn1 [TCMDC-125522],41.70
10,CCCc1cc(=O)[nH]c(-n2nc(C)cc2NC(=O)CC(c2ccccc2)c2ccccc2)n1 [TCMDC-124940],>76.92
11,Cc1cccc2nc(-c3ccc(-c4ccc(CNCCN5CCNCC5)cc4)s3)[nH]c12.O=C(O)C(F)(F)F [TCMDC-132870],9.35
12,COc1ccc(-c2cnc3[nH]cc(-c4ccncc4)c3c2)cc1OC [TCMDC-135853],5.22
13,C[C@H](Cc1ccc(OCCCCCOc2ccc(C[C@@H](C)NC[C@H](O)c3cccc(Cl)c3)cc2)cc1)NC[C@H](O)c1cccc(Cl)c1.Cl [TCMDC-131563],2.20
14,C=CCN(C(=O)c1ccc(Cl)c([N+](=O)[O-])c1)c1nc(-c2ccccc2)cs1 [TCMDC-124436],>769.23
15,COc1ccc(CCNCCCCCCNCCc2ccc(Cl)c3ccccc23)cc1OC.Cl [TCMDC-131270],3.67
16,CCc1c(CCNCCCCCCNCCc2ccc3c(c2C)OCO3)ccc2c1OCO2.Cl [TCMDC-132093],3.81
17,CCN(CCNS(C)(=O)=O)c1ccc(N)c(C)c1.O.O=S(=O)(O)O [TCMDC-125836],22.91

# Same assay, conditions: HepG2 TOX50 vs Pf FGAA IC50
row,SMILES,Selectivity ratio
1,Cl.N=C(NCCCCC1CCCCC1)c1cccc(C(=N)NCCCCC2CCCCC2)n1 [TCMDC-137452],1.73
2,Cl.Fc1cc(Cl)ccc1Nc1ccnc2cc(-c3ccc(CN4CCNCC4)o3)ccc12 [TCMDC-138394],6.32
3,CC(C)(C)CNCC(C)(C)c1nc(-c2ccc(Cl)c(O)c2)c(-c2ccncc2)[nH]1.Cl [TCMDC-140549],11.51
4,CC(CNC(=N)c1cccc(C(=N)NCC(C)Oc2cccc(C3CCCCC3)c2)n1)Oc1cccc(C2CCCCC2)c1.Cl (stereo not drawn) [TCMDC-137455],1.70
5,COc1cc2ccccc2c(CNCCCCCCNCc2c(OC)c(OC)cc3ccccc23)c1OC.CS(=O)(=O)O [TCMDC-137795],6.95
6,CN1CCN(Cc2ccc(OCc3cccc(COc4ccc(CN5CCN(C)CC5)cc4I)c3)c(I)c2)CC1.Cl [TCMDC-137239],2.71
7,O=C(/C=C/c1ccc(Cl)c(Cl)c1)N1CCC(CN2CCC(c3c[nH]c4ccncc34)CC2)CC1 [TCMDC-140074],6.11
8,Nc1nc(N)c2c(ccc3c2ccn3Cc2ccc(-c3ccccc3)cc2)n1 [TCMDC-137813],0.57
9,CC(C)(C)c1ccc(-c2nc3c(ccc4nc(N)nc(N)c43)[nH]2)cc1.Cl [TCMDC-137984],8.21
10,Cl.c1ccc2c(Nc3ccc(Cc4ccc(Nc5c6ccccc6nc6ccccc56)cc4)cc3)c3ccccc3nc2c1 [TCMDC-137354],3.69
11,CCCCCCCN1CC[C@@H](CCCc2ccnc3ccc(OC)cc23)[C@@H](CNC)C1.O=C(O)C(=O)O [TCMDC-139875],8.04
12,O=C(Nc1cc(Cl)c(Cl)cc1NC(=O)c1cccc(-c2ccccc2)c1O)c1cccc(-c2ccccc2)c1O [TCMDC-139548],2.84
13,CC1CCCCN1CCCNc1nc(NCc2ccccc2)c2ccccc2n1 (stereo not drawn) [TCMDC-137771],2.02
14,COc1ccc(CCNCCCCNCCc2ccc(OC)c3ccccc23)c2ccccc12.CS(=O)(=O)O [TCMDC-137961],4.44
15,CCn1c(-c2nonc2N)nc2c(-c3cccc(NC(=O)Nc4ccc(C(F)(F)F)cc4)c3)ncc(OCCCN)c21.O=C(O)C(F)(F)F [TCMDC-136179],6.15
16,COc1cc2nc(N3CCC(CCCC4CCNCC4)CC3)nc(NCc3ccccn3)c2cc1OC.O=C(O)C(F)(F)F [TCMDC-138494],2.70
17,CCOc1cc(CNCCCCCCNCc2cc(OCC)c(OCC)c3ccccc23)c2ccccc2c1OCC.CS(=O)(=O)O [TCMDC-137939],1.12
18,CCCCCCOc1ccc2ccccc2c1CNCCCCCCNCc1c(OCCCCCC)ccc2ccccc12.CS(=O)(=O)O [TCMDC-137963],1.60
19,Clc1ccc(/N=C(/NCCCCCCCN/C(=N\c2ccc(Cl)cc2)Nc2ccc(Cl)cc2)Nc2ccc(Cl)cc2)cc1 [TCMDC-137529],3.42
20,CC(=O)Nc1ccc2[nH]cc(C3CCN(CC4CCN(C(=O)/C=C/c5ccc(Cl)c(Cl)c5)CC4)CC3)c2n1 [TCMDC-140112],9.15
21,COc1cc2c(cc1CCNCCCCNCCc1cc3c(cc1OC)CCCC3)CCCC2.CS(=O)(=O)O [TCMDC-137319],2.10
22,COc1cc2nc(N3CCC(CNC(=O)c4ccc(-c5ccc(-c6noc(C)n6)cc5C)cc4)CC3)nc(N)c2cc1OC [TCMDC-138155],4.54
23,CCCCOc1c(CCNCCCCNCCc2cc(OC)c3ccccc3c2OCCCC)cc(OC)c2ccccc12.CS(=O)(=O)O [TCMDC-137848],3.22
24,CC(C)(C)c1ccc(-c2cc3c(ccc4nc(N)nc(N)c43)[nH]2)cc1 [TCMDC-137977],2.42
25,COc1cc2c(OC)cccc2cc1CNCCCCCCNCc1cc2cccc(OC)c2cc1OC.CS(=O)(=O)O [TCMDC-137945],2.69
26,CN1CCC=C(C(=O)NCC(C)(C)c2nc(-c3ccc(Cl)c(O)c3)c(-c3ccncc3)[nH]2)C1.Cl [TCMDC-140700],6.98
27,Br.C/C=C/C=C/C1=NCCc2cc(OCCC)ccc21 [TCMDC-137442],14.10
28,COc1ccc(N2CCN(CCCCNCc3ccc(NC(=O)c4cc(Cl)cc(Cl)c4)cc3)CC2)c(OC)c1 [TCMDC-138226],1.42
29,CC(C)Cn1cc(C2CCN(CCN3CCC(CNC(=O)c4ccc(-c5ccc(C#N)cc5)cc4)CC3)CC2)c2ccccc21 [TCMDC-138849],4.67
